PubChem BioAssay AID652272 | Drosophila RNAi Screening Center | 2013

- Assay: 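Genes whose knock-down decreases or increases Hedgehog reporter output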 (primary screen)
- System: Drosophila clone 8 (Cl8) cells
- Reagent: long dsRNA against Drosophila genes
- Measured: 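Firefly light from a Hedgehog-responsive ptc promoter reporter and Renilla reference light, both read on a plate reader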
- Scale: firefly Hh reporter signal: higher = more ptc reporter light; Renilla reference signal: higher = more Renilla control light
- Active means: 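Called a hit if the two-replicate mean z-score lies below -2 or above +3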
- Meaning of the calls: active = hit: reporter lowered or raised; inactive = not a hit
The deposit covers about 21,000 reagents; this is an unselected part of those with a known target gene and a result. In the full data, 503 (2.4%) are marked active. 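Raw plate light values, not normalised; calls rest on replicate z-scores that were not deposited; hits include reporter decreases as well as increases.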 No sequences are given here. The record does not give: the amount of reagent, the time to read-out.

Pp4-19C (GeneID 45031) [DRSC20559]
- firefly Hh reporter signal, replicate 1: 51880
- firefly Hh reporter signal, replicate 2: 1.91e5
- Renilla reference signal, replicate 1: 1098
- Renilla reference signal, replicate 2: 6946
- Outcome: inactive

Pp4-19C (GeneID 45031) [DRSC21251]
- firefly Hh reporter signal, replicate 1: 65271
- firefly Hh reporter signal, replicate 2: 1.42e5
- Renilla reference signal, replicate 1: 2517
- Renilla reference signal, replicate 2: 4896
- Outcome: inactive

CG10948 (GeneID 39459) [DRSC09806]
- firefly Hh reporter signal, replicate 1: 39980
- firefly Hh reporter signal, replicate 2: 72633
- firefly Hh reporter signal, replicate 3: 59394
- Renilla reference signal, replicate 1: 8131
- Renilla reference signal, replicate 2: 4787
- Outcome: inactive

Atpalpha (GeneID 48971) [DRSC14119]
- firefly Hh reporter signal, replicate 1: 1.34e5
- firefly Hh reporter signal, replicate 2: 1.01e5
- Renilla reference signal, replicate 1: 5873
- Renilla reference signal, replicate 2: 4348
- Outcome: inactive

Prim1 (GeneID 38942) [DRSC11137]
- firefly Hh reporter signal, replicate 1: 43429
- firefly Hh reporter signal, replicate 2: 43603
- Renilla reference signal, replicate 1: 5216
- Renilla reference signal, replicate 2: 4077
- Outcome: inactive

CG13204 (GeneID 36227) [DRSC06328]
- firefly Hh reporter signal, replicate 1: 69525
- firefly Hh reporter signal, replicate 2: 43224
- Renilla reference signal, replicate 1: 1608
- Renilla reference signal, replicate 2: 2953
- Outcome: inactive

spab (GeneID 35901) [DRSC07112]
- firefly Hh reporter signal, replicate 1: 1.10e5
- firefly Hh reporter signal, replicate 2: 60662
- Renilla reference signal, replicate 1: 2886
- Renilla reference signal, replicate 2: 5824
- Outcome: inactive

CG18649 (GeneID 39636) [DRSC10334]
- firefly Hh reporter signal, replicate 1: 1.06e5
- Renilla reference signal, replicate 1: 6121
- Renilla reference signal, replicate 2: 2496
- Outcome: inactive

CR12798 (GeneID 10178819) [DRSC21078]
- firefly Hh reporter signal, replicate 1: 71952
- firefly Hh reporter signal, replicate 2: 1.94e5
- Renilla reference signal, replicate 1: 2210
- Renilla reference signal, replicate 2: 8314
- Outcome: inactive

ZnT49B (GeneID 36393) [DRSC07225]
- firefly Hh reporter signal, replicate 1: 1.04e5
- firefly Hh reporter signal, replicate 2: 59397
- Renilla reference signal, replicate 1: 2480
- Renilla reference signal, replicate 2: 3705
- Outcome: inactive

hgo (GeneID 34552) [DRSC03544]
- firefly Hh reporter signal, replicate 1: 1.48e5
- firefly Hh reporter signal, replicate 2: 84384
- Renilla reference signal, replicate 1: 3811
- Renilla reference signal, replicate 2: 7445
- Outcome: inactive

mRpL10 (GeneID 33182) [DRSC00312]
- firefly Hh reporter signal, replicate 1: 1.47e5
- firefly Hh reporter signal, replicate 2: 65979
- Renilla reference signal, replicate 1: 4720
- Renilla reference signal, replicate 2: 2513
- Outcome: inactive
